Measured values as given in ChEMBL document CHEMBL4028900, “Design of Novel 3-Pyrimidinylazaindole CDK2/9 Inhibitors with Potent In Vitro and In Vivo Antitumor Efficacy in a Triple-Negative Breast Cancer Model” (J Med Chem, 2017).

By UniProt entry, the sequences of proteins in these tests, tags left out. Where a name states a change or a piece, a line headed by the entry shows the natural chain unless it says otherwise.
UniProt P41240: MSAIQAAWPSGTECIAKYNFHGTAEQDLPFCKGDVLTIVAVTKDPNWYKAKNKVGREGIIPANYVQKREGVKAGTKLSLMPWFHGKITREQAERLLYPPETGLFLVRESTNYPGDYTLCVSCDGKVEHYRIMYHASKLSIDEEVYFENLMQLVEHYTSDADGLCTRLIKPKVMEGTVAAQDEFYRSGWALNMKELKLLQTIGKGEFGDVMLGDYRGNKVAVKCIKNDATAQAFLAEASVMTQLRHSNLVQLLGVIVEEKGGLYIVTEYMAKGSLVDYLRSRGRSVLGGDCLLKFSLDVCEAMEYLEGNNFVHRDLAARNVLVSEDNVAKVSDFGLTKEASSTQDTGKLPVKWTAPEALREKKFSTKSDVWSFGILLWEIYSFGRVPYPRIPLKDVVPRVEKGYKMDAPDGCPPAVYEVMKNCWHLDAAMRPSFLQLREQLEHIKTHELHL
UniProt Q13882, whole entry, looked up: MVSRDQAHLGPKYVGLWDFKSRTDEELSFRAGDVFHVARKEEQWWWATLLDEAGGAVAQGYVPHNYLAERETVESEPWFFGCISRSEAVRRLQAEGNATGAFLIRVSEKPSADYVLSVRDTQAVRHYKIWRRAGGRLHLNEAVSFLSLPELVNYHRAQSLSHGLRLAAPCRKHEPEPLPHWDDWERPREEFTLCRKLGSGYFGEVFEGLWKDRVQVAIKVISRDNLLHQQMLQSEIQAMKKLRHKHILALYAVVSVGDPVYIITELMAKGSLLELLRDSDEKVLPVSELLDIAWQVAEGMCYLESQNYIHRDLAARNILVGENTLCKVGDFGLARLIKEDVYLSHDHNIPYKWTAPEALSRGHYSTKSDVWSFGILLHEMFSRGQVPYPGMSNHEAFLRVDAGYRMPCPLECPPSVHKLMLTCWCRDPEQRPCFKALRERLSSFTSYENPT
UniProt P11802: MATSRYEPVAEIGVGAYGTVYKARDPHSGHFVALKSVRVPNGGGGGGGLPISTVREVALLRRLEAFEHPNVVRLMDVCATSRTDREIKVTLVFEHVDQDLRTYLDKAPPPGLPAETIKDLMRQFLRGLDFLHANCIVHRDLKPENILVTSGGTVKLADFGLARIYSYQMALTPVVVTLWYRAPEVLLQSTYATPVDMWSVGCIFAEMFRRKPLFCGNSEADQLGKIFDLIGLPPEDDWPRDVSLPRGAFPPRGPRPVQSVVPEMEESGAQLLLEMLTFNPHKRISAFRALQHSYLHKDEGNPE
UniProt P24385: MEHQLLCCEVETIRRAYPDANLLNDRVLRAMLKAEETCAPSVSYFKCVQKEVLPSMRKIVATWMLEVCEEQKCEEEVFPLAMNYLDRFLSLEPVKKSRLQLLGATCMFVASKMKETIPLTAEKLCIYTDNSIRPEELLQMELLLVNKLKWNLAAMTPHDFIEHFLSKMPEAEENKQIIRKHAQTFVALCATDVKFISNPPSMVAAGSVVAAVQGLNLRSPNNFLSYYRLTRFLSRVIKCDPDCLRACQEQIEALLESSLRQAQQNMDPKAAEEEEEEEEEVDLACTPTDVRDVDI
UniProt P06239: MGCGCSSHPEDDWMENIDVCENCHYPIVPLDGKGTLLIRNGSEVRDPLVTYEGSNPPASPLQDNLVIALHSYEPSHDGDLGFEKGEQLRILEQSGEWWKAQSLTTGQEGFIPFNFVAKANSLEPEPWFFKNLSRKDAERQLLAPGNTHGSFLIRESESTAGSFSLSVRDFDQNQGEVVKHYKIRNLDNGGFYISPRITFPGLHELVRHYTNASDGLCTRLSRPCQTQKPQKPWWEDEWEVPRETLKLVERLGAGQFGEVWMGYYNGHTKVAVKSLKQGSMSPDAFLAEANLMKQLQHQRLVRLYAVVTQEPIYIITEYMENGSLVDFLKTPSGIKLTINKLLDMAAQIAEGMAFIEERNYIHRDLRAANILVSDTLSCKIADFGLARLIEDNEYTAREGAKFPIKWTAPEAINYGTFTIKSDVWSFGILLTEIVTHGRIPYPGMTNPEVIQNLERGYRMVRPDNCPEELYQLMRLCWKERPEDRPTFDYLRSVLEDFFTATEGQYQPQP
UniProt Q9P289: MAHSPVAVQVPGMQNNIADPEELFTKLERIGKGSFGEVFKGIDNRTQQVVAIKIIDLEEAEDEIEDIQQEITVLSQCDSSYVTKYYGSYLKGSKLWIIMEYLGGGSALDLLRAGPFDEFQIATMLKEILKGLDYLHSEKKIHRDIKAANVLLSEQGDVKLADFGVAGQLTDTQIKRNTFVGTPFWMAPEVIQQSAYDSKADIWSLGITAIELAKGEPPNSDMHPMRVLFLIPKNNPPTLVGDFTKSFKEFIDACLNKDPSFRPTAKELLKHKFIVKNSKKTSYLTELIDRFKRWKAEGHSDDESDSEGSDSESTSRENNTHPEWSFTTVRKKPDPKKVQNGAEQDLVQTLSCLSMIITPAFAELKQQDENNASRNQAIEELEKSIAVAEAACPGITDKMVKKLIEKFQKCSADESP
UniProt P53779: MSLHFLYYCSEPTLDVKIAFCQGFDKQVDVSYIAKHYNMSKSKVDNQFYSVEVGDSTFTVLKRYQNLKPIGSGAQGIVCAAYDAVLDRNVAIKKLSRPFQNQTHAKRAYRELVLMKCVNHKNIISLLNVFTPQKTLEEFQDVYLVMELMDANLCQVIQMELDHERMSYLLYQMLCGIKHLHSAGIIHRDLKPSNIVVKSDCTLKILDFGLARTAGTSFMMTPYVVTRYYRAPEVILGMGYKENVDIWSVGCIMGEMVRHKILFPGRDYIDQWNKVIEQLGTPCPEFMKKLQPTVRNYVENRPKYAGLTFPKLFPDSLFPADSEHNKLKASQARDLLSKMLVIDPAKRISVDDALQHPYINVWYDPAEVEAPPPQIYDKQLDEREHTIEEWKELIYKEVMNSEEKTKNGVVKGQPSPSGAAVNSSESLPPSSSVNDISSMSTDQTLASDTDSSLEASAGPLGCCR
UniProt P49841: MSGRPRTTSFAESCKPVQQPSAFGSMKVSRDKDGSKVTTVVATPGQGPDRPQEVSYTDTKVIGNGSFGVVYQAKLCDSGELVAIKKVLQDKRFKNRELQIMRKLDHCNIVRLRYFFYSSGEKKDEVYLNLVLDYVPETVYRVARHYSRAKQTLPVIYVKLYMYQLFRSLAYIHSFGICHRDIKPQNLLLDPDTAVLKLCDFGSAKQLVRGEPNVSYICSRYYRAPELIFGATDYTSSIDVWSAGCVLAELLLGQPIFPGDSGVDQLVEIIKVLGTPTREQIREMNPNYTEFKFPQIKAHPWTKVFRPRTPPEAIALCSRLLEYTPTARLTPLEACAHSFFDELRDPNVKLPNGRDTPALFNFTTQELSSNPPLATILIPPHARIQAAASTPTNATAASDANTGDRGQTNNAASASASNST
UniProt P23443: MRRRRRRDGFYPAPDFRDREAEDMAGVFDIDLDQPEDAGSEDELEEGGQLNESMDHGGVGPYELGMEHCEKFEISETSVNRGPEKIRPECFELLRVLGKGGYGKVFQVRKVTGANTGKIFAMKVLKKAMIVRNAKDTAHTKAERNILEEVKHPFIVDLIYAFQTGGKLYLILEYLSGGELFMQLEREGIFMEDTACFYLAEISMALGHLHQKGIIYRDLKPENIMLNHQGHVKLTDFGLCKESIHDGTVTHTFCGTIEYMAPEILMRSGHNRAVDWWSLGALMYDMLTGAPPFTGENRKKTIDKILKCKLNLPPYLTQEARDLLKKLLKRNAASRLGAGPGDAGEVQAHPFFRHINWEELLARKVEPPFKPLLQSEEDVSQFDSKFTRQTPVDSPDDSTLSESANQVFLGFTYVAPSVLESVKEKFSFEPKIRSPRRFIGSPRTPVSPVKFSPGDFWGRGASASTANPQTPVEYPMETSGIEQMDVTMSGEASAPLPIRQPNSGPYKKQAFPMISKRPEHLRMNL
UniProt P42336, whole entry: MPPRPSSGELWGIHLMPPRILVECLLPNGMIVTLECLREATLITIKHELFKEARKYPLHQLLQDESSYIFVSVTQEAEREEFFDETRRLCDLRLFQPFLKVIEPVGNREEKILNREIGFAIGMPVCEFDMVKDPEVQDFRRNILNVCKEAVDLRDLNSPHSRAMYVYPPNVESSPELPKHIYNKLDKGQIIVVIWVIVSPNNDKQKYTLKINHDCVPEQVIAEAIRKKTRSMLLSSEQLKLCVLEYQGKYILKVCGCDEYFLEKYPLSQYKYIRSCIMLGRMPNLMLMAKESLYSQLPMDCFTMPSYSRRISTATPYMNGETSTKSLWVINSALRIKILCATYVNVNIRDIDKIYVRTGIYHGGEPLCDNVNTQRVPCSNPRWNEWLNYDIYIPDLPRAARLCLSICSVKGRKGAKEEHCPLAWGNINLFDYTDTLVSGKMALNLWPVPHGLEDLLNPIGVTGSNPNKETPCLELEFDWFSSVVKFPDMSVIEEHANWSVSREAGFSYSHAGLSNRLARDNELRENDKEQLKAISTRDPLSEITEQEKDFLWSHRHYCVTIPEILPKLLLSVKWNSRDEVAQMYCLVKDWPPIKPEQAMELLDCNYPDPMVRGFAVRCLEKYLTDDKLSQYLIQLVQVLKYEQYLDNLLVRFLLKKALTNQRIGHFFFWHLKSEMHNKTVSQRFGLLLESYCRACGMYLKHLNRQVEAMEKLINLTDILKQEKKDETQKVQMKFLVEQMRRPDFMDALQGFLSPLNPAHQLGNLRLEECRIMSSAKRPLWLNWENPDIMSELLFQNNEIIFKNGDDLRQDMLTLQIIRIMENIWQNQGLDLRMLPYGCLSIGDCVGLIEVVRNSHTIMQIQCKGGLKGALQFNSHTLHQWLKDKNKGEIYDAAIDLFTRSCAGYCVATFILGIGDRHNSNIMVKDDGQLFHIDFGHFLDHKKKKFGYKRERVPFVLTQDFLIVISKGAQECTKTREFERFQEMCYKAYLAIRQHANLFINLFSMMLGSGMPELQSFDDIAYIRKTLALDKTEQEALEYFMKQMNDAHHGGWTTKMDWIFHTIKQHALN
UniProt P17948, whole entry: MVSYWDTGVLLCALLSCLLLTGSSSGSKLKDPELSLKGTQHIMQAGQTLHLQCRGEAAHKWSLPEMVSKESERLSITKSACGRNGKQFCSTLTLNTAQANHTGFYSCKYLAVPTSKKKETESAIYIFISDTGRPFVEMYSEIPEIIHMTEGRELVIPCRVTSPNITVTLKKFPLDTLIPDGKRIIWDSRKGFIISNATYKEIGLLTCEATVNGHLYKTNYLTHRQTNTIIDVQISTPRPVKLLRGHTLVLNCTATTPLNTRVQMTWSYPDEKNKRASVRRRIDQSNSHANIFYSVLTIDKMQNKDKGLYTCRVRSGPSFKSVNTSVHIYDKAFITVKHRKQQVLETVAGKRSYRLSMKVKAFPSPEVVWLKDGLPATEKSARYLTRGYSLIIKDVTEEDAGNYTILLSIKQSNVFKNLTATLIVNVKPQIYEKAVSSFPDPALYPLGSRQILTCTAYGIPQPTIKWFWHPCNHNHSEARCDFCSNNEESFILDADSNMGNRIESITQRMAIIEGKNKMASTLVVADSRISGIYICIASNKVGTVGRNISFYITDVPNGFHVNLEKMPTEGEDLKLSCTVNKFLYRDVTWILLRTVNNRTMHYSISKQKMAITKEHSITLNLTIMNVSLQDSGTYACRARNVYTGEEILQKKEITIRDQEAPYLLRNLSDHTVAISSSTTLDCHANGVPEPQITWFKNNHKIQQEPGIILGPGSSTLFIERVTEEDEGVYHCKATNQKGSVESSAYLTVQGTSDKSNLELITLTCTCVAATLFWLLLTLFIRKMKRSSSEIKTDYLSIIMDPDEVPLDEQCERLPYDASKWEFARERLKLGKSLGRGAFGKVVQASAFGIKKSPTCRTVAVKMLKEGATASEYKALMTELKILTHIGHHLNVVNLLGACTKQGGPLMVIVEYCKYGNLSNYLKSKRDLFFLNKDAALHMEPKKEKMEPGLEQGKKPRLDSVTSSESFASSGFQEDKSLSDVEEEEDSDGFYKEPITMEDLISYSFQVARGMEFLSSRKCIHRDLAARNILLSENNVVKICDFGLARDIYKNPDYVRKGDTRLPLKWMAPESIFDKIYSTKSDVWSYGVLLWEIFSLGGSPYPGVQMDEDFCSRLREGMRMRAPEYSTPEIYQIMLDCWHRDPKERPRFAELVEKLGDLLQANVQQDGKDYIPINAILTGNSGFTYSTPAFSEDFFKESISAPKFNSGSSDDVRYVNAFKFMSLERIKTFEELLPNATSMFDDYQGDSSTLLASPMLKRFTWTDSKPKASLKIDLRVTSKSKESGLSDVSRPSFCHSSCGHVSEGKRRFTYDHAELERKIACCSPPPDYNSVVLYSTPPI

Key:
[1] = target: Serine/threonine-protein kinase PLK1 (Homo sapiens) (UniProt P53350); experiment: Inhibition of PLK1 (unknown origin) at 100 nM relative to control
[2] = target: T1, Tyrosine-protein kinase JAK3 (Homo sapiens) (UniProt P52333); experiment: Inhibition of JAK3 (unknown origin) at 100 nM relative to control
T1 sequence (whole entry): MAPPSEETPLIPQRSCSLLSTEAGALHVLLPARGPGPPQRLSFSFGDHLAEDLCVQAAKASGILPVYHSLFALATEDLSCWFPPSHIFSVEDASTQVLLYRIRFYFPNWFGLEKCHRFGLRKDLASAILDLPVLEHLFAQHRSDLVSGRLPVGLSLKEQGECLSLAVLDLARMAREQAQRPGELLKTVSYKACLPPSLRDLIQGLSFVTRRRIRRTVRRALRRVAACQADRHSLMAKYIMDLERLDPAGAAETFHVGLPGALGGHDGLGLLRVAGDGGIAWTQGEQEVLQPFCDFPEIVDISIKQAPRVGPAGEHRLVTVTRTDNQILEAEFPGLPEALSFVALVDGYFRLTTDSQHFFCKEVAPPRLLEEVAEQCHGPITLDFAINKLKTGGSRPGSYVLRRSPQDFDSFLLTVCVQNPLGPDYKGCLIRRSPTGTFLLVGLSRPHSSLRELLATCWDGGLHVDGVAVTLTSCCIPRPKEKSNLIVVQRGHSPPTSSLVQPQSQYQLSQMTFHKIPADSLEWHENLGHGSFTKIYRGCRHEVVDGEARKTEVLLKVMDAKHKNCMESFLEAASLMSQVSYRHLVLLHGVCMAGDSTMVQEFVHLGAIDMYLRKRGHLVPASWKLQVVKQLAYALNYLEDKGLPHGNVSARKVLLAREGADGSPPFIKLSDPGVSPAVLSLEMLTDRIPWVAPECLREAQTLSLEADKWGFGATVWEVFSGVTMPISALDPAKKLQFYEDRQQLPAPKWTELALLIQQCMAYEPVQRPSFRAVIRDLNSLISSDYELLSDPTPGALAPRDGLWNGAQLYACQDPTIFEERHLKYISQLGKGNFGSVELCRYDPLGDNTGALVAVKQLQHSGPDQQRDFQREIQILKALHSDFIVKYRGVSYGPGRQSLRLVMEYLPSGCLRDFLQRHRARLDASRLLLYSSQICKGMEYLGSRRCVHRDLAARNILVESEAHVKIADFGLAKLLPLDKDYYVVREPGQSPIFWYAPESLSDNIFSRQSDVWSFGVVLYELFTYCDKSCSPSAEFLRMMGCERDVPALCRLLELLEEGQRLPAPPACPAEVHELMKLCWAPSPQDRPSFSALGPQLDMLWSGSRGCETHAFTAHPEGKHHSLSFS

[3] = target: Tyrosine-protein kinase CSK (Homo sapiens) (UniProt P41240); experiment: Inhibition of CSK (unknown origin) at 100 nM relative to control
[4] = target: Dual specificity tyrosine-phosphorylation-regulated kinase 1A (Homo sapiens) (UniProt Q13627); settings: at 100 nM
[5] = target: Protein-tyrosine kinase 6 (Homo sapiens) (UniProt Q13882); experiment: Inhibition of BRK (unknown origin) at 100 nM relative to control
[6] = target: Insulin receptor-related protein (Homo sapiens) (UniProt P14616); experiment: Inhibition of IRR (unknown origin) at 100 nM relative to control
[7] = target: T2, Inhibitor of nuclear factor kappa-B kinase subunit beta (Homo sapiens) (UniProt O14920); experiment: Inhibition of IKKbeta (unknown origin) at 100 nM relative to control
T2 sequence (whole entry): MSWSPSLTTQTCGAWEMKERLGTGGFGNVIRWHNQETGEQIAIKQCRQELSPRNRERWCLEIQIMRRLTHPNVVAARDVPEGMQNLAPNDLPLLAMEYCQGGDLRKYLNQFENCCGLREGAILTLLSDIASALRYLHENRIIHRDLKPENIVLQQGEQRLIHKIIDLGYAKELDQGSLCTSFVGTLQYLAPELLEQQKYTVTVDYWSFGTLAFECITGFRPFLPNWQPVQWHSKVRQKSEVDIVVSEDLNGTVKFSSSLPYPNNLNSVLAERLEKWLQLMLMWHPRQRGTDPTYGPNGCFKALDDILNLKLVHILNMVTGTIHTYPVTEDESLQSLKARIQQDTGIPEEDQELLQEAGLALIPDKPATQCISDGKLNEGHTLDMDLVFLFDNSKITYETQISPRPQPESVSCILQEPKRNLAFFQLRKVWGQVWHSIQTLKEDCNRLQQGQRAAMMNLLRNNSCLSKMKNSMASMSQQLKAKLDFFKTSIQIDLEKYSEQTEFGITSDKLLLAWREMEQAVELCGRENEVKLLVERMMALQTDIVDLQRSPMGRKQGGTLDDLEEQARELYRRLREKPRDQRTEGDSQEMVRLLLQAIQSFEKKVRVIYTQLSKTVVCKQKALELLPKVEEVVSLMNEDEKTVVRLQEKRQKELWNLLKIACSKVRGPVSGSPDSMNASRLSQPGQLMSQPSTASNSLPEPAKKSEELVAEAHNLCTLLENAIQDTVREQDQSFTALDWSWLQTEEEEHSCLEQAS

[8] = target: T3, Serine/threonine-protein kinase Chk1 (Homo sapiens) (UniProt O14757); experiment: Inhibition of CHK1 (unknown origin) at 100 nM relative to control
T3 sequence (whole entry): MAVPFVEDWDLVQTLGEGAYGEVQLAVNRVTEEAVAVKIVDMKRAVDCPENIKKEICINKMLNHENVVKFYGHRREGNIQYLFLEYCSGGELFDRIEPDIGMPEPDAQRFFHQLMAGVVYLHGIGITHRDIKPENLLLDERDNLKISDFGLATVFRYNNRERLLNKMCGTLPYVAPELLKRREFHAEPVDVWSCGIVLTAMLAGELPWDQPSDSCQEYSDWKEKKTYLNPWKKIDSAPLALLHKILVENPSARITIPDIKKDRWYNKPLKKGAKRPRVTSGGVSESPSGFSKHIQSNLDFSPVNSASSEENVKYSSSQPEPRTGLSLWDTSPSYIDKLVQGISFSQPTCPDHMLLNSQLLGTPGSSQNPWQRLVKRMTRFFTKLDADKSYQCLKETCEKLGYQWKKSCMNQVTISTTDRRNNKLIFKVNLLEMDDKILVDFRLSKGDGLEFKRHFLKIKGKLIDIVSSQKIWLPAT

[9] = target: T4, Aurora kinase A (Homo sapiens) (UniProt O14965); experiment: Inhibition of aurora A (unknown origin) at 500 nM relative to control
T4 sequence (whole entry): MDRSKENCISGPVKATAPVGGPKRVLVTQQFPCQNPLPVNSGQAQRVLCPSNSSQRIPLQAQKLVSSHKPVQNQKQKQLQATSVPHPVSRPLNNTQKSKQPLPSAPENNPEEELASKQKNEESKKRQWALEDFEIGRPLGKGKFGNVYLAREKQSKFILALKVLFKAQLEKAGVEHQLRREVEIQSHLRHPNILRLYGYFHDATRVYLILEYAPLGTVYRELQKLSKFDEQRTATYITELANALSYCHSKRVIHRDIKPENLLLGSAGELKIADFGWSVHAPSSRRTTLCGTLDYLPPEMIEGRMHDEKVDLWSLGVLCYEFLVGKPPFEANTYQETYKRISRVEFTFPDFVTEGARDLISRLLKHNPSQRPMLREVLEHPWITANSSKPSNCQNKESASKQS

[10] = target: Cyclin-dependent kinase 4/cyclin D1 (Homo sapiens) (UniProt P11802+P24385); experiment: Inhibition of CDK4/cyclin D1 (unknown origin) at 500 nM relative to control; type: protein-complex assay
[11] = target: T1, Tyrosine-protein kinase JAK3 (Homo sapiens); experiment: Inhibition of JAK3 (unknown origin) at 500 nM relative to control
[12] = target: T4, Aurora kinase A (Homo sapiens); experiment: Inhibition of aurora A (unknown origin) at 100 nM relative to control
[13] = target: T5, Serine/threonine-protein kinase Nek6 (Homo sapiens) (UniProt Q9HC98); experiment: Inhibition of NEK6 (unknown origin) at 100 nM relative to control
T5 sequence (whole entry): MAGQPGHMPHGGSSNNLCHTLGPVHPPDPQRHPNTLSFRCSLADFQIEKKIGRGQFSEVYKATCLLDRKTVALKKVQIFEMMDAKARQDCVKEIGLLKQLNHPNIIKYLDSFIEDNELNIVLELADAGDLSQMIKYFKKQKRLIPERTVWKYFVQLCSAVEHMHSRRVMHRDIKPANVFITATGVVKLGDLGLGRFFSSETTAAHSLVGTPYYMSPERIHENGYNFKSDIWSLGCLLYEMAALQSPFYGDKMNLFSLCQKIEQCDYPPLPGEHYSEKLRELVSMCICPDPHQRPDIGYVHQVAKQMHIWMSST

[14] = target: Tyrosine-protein kinase Lck (Homo sapiens) (UniProt P06239); experiment: Inhibition of LCK (unknown origin) at 500 nM relative to control
[15] = target: T6, Serine/threonine-protein kinase Sgk1 (Homo sapiens) (UniProt O00141); experiment: Inhibition of SGK (unknown origin) at 500 nM relative to control
T6 sequence (whole entry): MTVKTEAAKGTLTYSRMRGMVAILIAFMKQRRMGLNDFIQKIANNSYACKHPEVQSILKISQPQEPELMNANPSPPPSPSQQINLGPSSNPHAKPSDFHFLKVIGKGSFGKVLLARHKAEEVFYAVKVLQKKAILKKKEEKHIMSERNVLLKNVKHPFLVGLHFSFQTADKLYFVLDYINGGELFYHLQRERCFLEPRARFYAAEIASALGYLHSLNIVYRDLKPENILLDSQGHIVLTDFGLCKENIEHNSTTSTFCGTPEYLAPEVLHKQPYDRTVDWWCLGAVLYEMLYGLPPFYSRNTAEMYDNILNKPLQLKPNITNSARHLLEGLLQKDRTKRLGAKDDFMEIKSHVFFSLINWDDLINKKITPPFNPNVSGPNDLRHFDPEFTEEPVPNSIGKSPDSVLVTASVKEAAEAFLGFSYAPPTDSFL

[16] = target: T3, Serine/threonine-protein kinase Chk1 (Homo sapiens); experiment: Inhibition of CHK1 (unknown origin) at 500 nM relative to control
[17] = target: Serine/threonine-protein kinase 26 (Homo sapiens) (UniProt Q9P289); experiment: Inhibition of MST4 (unknown origin) at 500 nM relative to control
[18] = target: Mitogen-activated protein kinase 10 (Homo sapiens) (UniProt P53779); experiment: Inhibition of JNK3 (unknown origin) at 100 nM relative to control
[19] = target: Glycogen synthase kinase-3 beta (Homo sapiens) (UniProt P49841); experiment: Inhibition of GSK3b (unknown origin) at 100 nM relative to control
[20] = target: Glycogen synthase kinase-3 beta (Homo sapiens) (UniProt P49841); experiment: Inhibition of GSK3b (unknown origin) at 500 nM relative to control
[21] = target: Tyrosine-protein kinase CSK (Homo sapiens) (UniProt P41240); experiment: Inhibition of CSK (unknown origin) at 500 nM relative to control
[22] = target: Ribosomal protein S6 kinase beta-1 (Homo sapiens) (UniProt P23443); experiment: Inhibition of S6K1 (unknown origin) at 100 nM relative to control
[23] = target: Phosphatidylinositol 4,5-bisphosphate 3-kinase catalytic subunit alpha isoform (Homo sapiens) (UniProt P42336); experiment: Inhibition of PI3Kalpha (unknown origin) at 100 nM relative to control
[24] = target: Tyrosine-protein kinase Lck (Homo sapiens) (UniProt P06239); experiment: Inhibition of LCK (unknown origin) at 100 nM relative to control
[25] = target: Protein-tyrosine kinase 6 (Homo sapiens) (UniProt Q13882); experiment: Inhibition of BRK (unknown origin) at 500 nM relative to control
[26] = target: Dual specificity tyrosine-phosphorylation-regulated kinase 1A (Homo sapiens) (UniProt Q13627); settings: at 500 nM
[27] = target: Vascular endothelial growth factor receptor 1 (Homo sapiens) (UniProt P17948); experiment: Inhibition of VEGFR1 (unknown origin) at 100 nM relative to control
[28] = target: T5, Serine/threonine-protein kinase Nek6 (Homo sapiens); experiment: Inhibition of NEK6 (unknown origin) at 500 nM relative to control
[29] = target: Ribosomal protein S6 kinase beta-1 (Homo sapiens) (UniProt P23443); experiment: Inhibition of S6K1 (unknown origin) at 500 nM relative to control
[30] = target: Serine/threonine-protein kinase 26 (Homo sapiens) (UniProt Q9P289); experiment: Inhibition of MST4 (unknown origin) at 100 nM relative to control
[31] = target: Mitogen-activated protein kinase 10 (Homo sapiens) (UniProt P53779); experiment: Inhibition of JNK3 (unknown origin) at 500 nM relative to control
[32] = target: Vascular endothelial growth factor receptor 1 (Homo sapiens) (UniProt P17948); experiment: Inhibition of VEGFR1 (unknown origin) at 500 nM relative to control
[33] = target: Serine/threonine-protein kinase PLK1 (Homo sapiens) (UniProt P53350); experiment: Inhibition of PLK1 (unknown origin) at 500 nM relative to control
[34] = target: Phosphatidylinositol 4,5-bisphosphate 3-kinase catalytic subunit alpha isoform (Homo sapiens) (UniProt P42336); experiment: Inhibition of PI3Kalpha (unknown origin) at 500 nM relative to control
[35] = target: T6, Serine/threonine-protein kinase Sgk1 (Homo sapiens); experiment: Inhibition of SGK (unknown origin) at 100 nM relative to control
[36] = target: T2, Inhibitor of nuclear factor kappa-B kinase subunit beta (Homo sapiens); experiment: Inhibition of IKKbeta (unknown origin) at 500 nM relative to control
[37] = target: Insulin receptor-related protein (Homo sapiens) (UniProt P14616); experiment: Inhibition of IRR (unknown origin) at 500 nM relative to control

- inhibition [1]: 22.5%
- inhibition [2]: 22.5%
- inhibition [3]: 14.7%
- inhibition [4]: 88.3%
- inhibition [5]: -5.9%
- inhibition [6]: 14.7%
- inhibition [7]: 54.5%
- inhibition [8]: 25.9%
- inhibition [9]: 20.4%
- inhibition [10]: 70.7%
- inhibition [11]: 52.8%
- inhibition [12]: -5.9%
- inhibition [13]: 6%
- inhibition [14]: 47.7%
- inhibition [15]: 40.4%
- inhibition [16]: 52.3%
- inhibition [17]: 15%
- inhibition [18]: 25.5%
- inhibition [19]: 25.9%
- inhibition [20]: 52.3%
- inhibition [21]: 3.3%
- inhibition [22]: 7.9%
- inhibition [23]: 27.4%
- inhibition [24]: 33.3%
- inhibition [25]: 20.4%
- inhibition [26]: 95.9%
- inhibition [27]: 76.5%
- inhibition [28]: 19.2%
- inhibition [29]: 30.1%
- inhibition [30]: 12.9%
- inhibition [31]: 69.3%
- inhibition [32]: 86.9%
- inhibition [33]: 52.8%
- inhibition [34]: 52.9%
- inhibition [35]: 7.6%
- inhibition [36]: 62.8%
- inhibition [37]: 3.3%
Compound: Nc1nccc(-c2c[nH]c3ncc(-c4ccc(F)cc4)cc23)n1
